Experimental findings from the odorant receptor screen of Mainland et al. (2015) are described below.

Holding throughout (experiment): odorant receptor activation (CRE luciferase / Renilla) (fold of no-odor wells); higher = more activation
Common to all, as to details: 100 µM

Assay [1] deals with OR10C1 clone 1065.
In assay [2] the test system is OR10G3 S73G clone 1272.
In assay [3] the test system is OR10G4 A9V/M134V/V195E/R235G/K295Q clone 1119.
For assay [4], the system named is OR10G6 clone 1108.
Assay [5] concerns OR10G7 clone 1589.
Assay [6] deals with OR10G8 clone 1396.
The subject of assay [7] is OR10G9 A90T/M134V clone 1192.
Assay [8] deals with OR10H1 clone 1291.
For assay [9], the system named is OR10H2 L40Q clone 1461.
Assay [10] deals with OR10H3 clone 1525.
Assay [11] deals with OR10H5 A224D clone 1294.
Assay [12] has as its system OR10J1 clone 1711.
The test system of assay [13] is OR10J3 clone 1458.
The subject of assay [14] is OR10J5 R233W clone 1410.
The subject of assay [15] is OR10J5 clone 1037.
The test system of assay [16] is OR10K1 clone 1024.
Assay [17] deals with OR10K2 clone 1040.
Assay [18] has as its system OR10P1 clone 1254.
The test system of assay [19] is OR10Q1 clone 1202.
In assay [20] the test system is OR10R2 A191T/E216G/L239F clone 1304.

Several values for one entry are separate records, joined by “and”; a condition that tells them apart may be missing. Equal values may be shown once. The list shows a part of the results. Each value is one well over the wells without odorant, computed here; the data are noisy.

Take `CC12CCC(CC1)C(C)(C)O2` [cineole]: the odorant receptor activation in assay [1] worked out at 0.898; in assay [2], 0.867; in assay [3] it was 1.12; in assay [4] it was 0.9; in assay [5] it was 1.63; in assay [6], 0.314. Further, the odorant receptor activation in assay [7] stood at 0.823; in [8] it was 1.19; in assay [9] it was 1.38; in [10], 0.757; in assay [11], 0.967; in assay [12], 1.05. The odorant receptor activation in assay [13] worked out at 1.41; in assay [14] it was 0.171; in assay [15], 0.814; in assay [16], 0.886; in assay [17] it was 0.761; in assay [18], 0.758. Moreover, the odorant receptor activation in assay [19] is 0.943; in assay [20], 1.01.

As to `CC(=O)OC(C)(C)C1CC=C(C)CC1` (stereo not given) [terpinyl acetate], the odorant receptor activation in assay [1] was found to be 1.2; in assay [2], 0.883; in [3], 0.896; in [4], 1.17; in [5] it was 1.42; in assay [6], 1.06. Moreover, the odorant receptor activation stood at 1.29 in assay [7]; 0.776 in assay [8]; 0.925 in assay [9]; 1.14 in assay [10]; 0.807 in [11]; 1.01 in [12]. Moreover, the odorant receptor activation in assay [13] worked out at 0.942; in assay [14] it was 1.1; in assay [15], 1.31; in assay [16], 1.09; in assay [17], 1.58; in assay [18] it was 0.965. Further, the results for the odorant receptor activation in assay [19] and in [20] were 1.1 and 0.772, respectively.

With `O=C1CCCCCCCCCCCC(=O)OCCO1` [ethylene brassylate], the odorant receptor activation in assay [1] stood at 1.85; in assay [2], 1.5; in assay [3], 2.06; in [4], 1.92; in assay [5], 1.01; in [6] it was 1.92. The odorant receptor activation in assay [7] was 1.95; in assay [8] it was 1.27; in [9] it was 1.79; in assay [10] it was 1.1; in assay [11], 1.51; in assay [12] it was 1.24. For the same compound, the odorant receptor activation in [13] turned out to be 1.7; in assay [14], 1.85; in assay [15], 1.54; in assay [16] it was 1.54; in assay [17], 1.57; in assay [18], 1.88. In addition, the odorant receptor activation in assay [19] amounted to 1.48; in assay [20] it was 1.44.

With `CCCCCCCC=O` [octyl aldehyde], the odorant receptor activation in [1] worked out at 0.918; in assay [2], 1.24; in [3], 0.983; in assay [4] it was 1.27; in assay [5], 4.41; in assay [6], 0.675. For the same compound, the odorant receptor activation stood at 1.19 in [7]; 1.04 in assay [8]; 0.864 in assay [9]; 0.953 in assay [10]; 1.02 in [11]; 0.932 in [12]. The odorant receptor activation in assay [13] amounted to 0.79; in assay [14] it was 1.03; in assay [15], 1.06; in assay [16], 1.23; in [17] it was 1; in [18], 1.14. The figures for the odorant receptor activation in assay [19] and in assay [20] were 0.995 and 1.08, respectively.

On to `CCCCO` [1-butanol], for which the odorant receptor activation in assay [1] was 2.77; in [2], 1.22; in [3] it was 0.905; in assay [4], 34.3; in assay [5], 0.785; in assay [6], 0.847. Also, the odorant receptor activation in [7] is 1.01; in assay [8] it was 0.884; in assay [9], 1.37; in assay [10] it was 1.18; in assay [11] it was 0.527; in assay [12] it was 0.79. Moreover, the odorant receptor activation in assay [13] worked out at 0.903; in assay [14], 1.11; in assay [15] it was 3.21; in assay [16], 3.64; in [17], 2.53; in assay [18] it was 0.892. Besides, the odorant receptor activation turned out to be 1.08 in [19] and 0.961 in assay [20].

For the compound `CC(C)C=O` [isobutyraldehyde], the odorant receptor activation in assay [1] is 1.25; in [2], 1.33 and 0.934; in assay [3], 0.914; in assay [4] it was 1.05; in assay [5] it was 8.61; in assay [6] it was 0.811. Moreover, the odorant receptor activation in assay [7] is 0.72; in assay [8] it was 1.61 and 0.974; in assay [9] it was 0.61 and 0.969; in [10], 1.03 and 1.14; in assay [11], 0.997 and 0.967; in [12] it was 0.931. In addition, the odorant receptor activation in [13] was 0.931; in [14] it was 0.899; in assay [15] it was 1.23; in assay [16], 0.819; in [17] it was 1.38; in assay [18] it was 1.27 and 1.44. Further, the odorant receptor activation in assay [19] is 1.14; in assay [20] it was 0.993 and 0.618.

Take `CCCCCCCCCC=O` [decyl aldehyde]: the odorant receptor activation in assay [1] came to 1.31; in assay [2], 1.25; in assay [3], 0.946; in [4] it was 1.33; in assay [5] it was 0.268; in assay [6], 1.41. In addition, the odorant receptor activation is 1.22 in assay [7]; 1.15 in assay [8]; 1.27 in assay [9]; 1.42 in assay [10]; 1.25 in assay [11]; 0.675 in [12]. Moreover, the odorant receptor activation in [13] worked out at 0.861; in assay [14], 1.17; in assay [15], 1.02; in assay [16] it was 1.4; in assay [17] it was 1.3; in assay [18], 1.3. Besides, the odorant receptor activation was 1.2 in assay [19] and 1.17 in assay [20].

Regarding `C=CC(C)(O)CCC=C(C)C` (stereo not given) [linalool], the odorant receptor activation in [1] came out at 1.06; in assay [2], 1.01; in assay [3], 1; in [4], 1.18; in assay [5], 4.24; in [6], 0.943. For the same compound, the odorant receptor activation in [7] turned out to be 0.971; in assay [8], 0.907; in [9] it was 0.99; in [10] it was 0.927; in assay [11], 0.738; in assay [12], 0.907. The odorant receptor activation came to 1.16 in assay [13]; 1.16 in [14]; 1.51 in assay [15]; 1.43 in [16]; 1.04 in assay [17]; 0.927 in assay [18]. The odorant receptor activation in [19] is 0.947; in assay [20] it was 0.936.

For `C=CCc1ccc(OC)c(OC)c1` [eugenol methyl ether], the odorant receptor activation in assay [1] turned out to be 1.69; in [2] it was 1.55; in [3], 1.52; in assay [4], 1.75; in assay [5], 7.23; in assay [6] it was 1.44. For the same compound, the odorant receptor activation in assay [7] worked out at 1.36; in [8] it was 1.5; in [9], 1.66; in assay [10], 1.28; in assay [11] it was 1.53; in [12] it was 0.706. The odorant receptor activation in assay [13] stood at 1.04; in assay [14], 1.51; in [15], 1.56; in [16] it was 1.54; in assay [17], 1.43; in [18], 1.44. Further, the odorant receptor activation in assay [19] is 1.69; in assay [20] it was 1.61.

Regarding `CC(C)CCC(=O)O` [4-methylvaleric acid], the odorant receptor activation stood at 2.01 in assay [1]; 1.35 in [2]; 1.41 in assay [3]; 18.4 in assay [4]; 4.84 in [5]; 1.38 in assay [6]. Further, the odorant receptor activation came to 0.697 in [7]; 1.2 in assay [8]; 0.986 in [9]; 1.09 in assay [10]; 0.956 in assay [11]; 0.728 in assay [12]. Also, the odorant receptor activation turned out to be 0.866 in [13]; 1.7 in assay [14]; 1.76 in assay [15]; 2.47 in assay [16]; 1.94 in [17]; 0.973 in [18]. In addition, the odorant receptor activation in assay [19] was determined as 1.81; in [20] it was 1.1.

For `CC(=O)OCC=C(C)CCC=C(C)C` [geranyl acetate], the odorant receptor activation in assay [1] was 1.98; in assay [2] it was 0.931 and 1.52; in assay [3], 3.46; in [4] it was 1.8; in assay [5], 4.07; in assay [6] it was 0.994. Moreover, the odorant receptor activation in assay [7] is 0.861; in assay [8], 1.02 and 0.886; in assay [9], 0.82 and 1.18; in assay [10] it was 0.63 and 1.43; in assay [11], 1.49 and 1.15; in assay [12] it was 1.28. The odorant receptor activation in [13] was 1.15; in assay [14], 1.18; in [15], 1.68; in assay [16] it was 1.89; in [17] it was 1.16; in [18], 1.62 and 2.89. The odorant receptor activation was 1.51 in [19]; 1.02 and 0.953 in assay [20].

As for `CCCCCCCCOC(C)=O` [octyl acetate], the odorant receptor activation in assay [1] was found to be 0.837; in assay [2], 1.42; in assay [3] it was 0.856; in assay [4], 1.1; in assay [5], 10; in assay [6], 0.996. For the same compound, the odorant receptor activation in assay [7] is 1.17; in [8] it was 0.938; in [9], 0.915; in [10] it was 0.911; in assay [11], 1.09; in assay [12], 0.986. The odorant receptor activation came out at 0.917 in assay [13]; 1.17 in assay [14]; 0.997 in assay [15]; 1.07 in assay [16]; 0.968 in [17]; 0.904 in [18]. Also, the odorant receptor activation is 0.863 in [19] and 1.09 in [20].

As to `O=CCc1ccccc1` [phenyl acetaldehyde], the odorant receptor activation in assay [1] was 0.836; in assay [2], 1.3; in assay [3], 1.25; in [4], 1.02; in assay [5] it was 1.55; in assay [6], 1.78. In addition, the odorant receptor activation in assay [7] worked out at 0.854; in assay [8] it was 1.13; in assay [9], 1.02; in assay [10], 1.07; in [11] it was 1.49; in assay [12], 0.781. For the same compound, the odorant receptor activation in assay [13] was 1.09; in [14] it was 1.65; in assay [15] it was 1.05; in assay [16] it was 0.932; in [17], 1.39; in assay [18], 1.3. For the same compound, the odorant receptor activation in [19] worked out at 0.817; in [20] it was 0.895.
